Measurements reported in PubChem BioAssay AID504791 (Drosophila RNAi Screening Center, 2011).
The screen tested about 23,000 reagents; below is a random part of those with a known target gene and a result. In the full data, 199 (0.86%) were called active. 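Plate-scaled ratios behind the calls are not deposited; printed light signals are raw; many rows marked increased or decreased are still called inactive.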 Reagents against one gene are numbered here. The record does not give: the direction of the score.

- Purpose: 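Genes of the fly required for silencing by miRNA, siRNA or endo-siRNA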 (primary screen)
- Cells: Drosophila S2-derived reporter cells
- Reagent: long dsRNA against Drosophila genes, about 150-250 ng dsRNA per well (siRNA assay); about 80-120 ng (miRNA assay)
- Timing: about 5 days (siRNA assay); about 4 days (miRNA assay)
- Conditions: copper sulfate induction of reporters: 25 µM (siRNA assay); 200 mM stated (miRNA assay), 1-2 days before reading
- Read-out: 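Per-well ratio of Renilla over firefly light, expressed relative to that plate's average ratio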
- Units: stable assay Renilla, run 1 in luminescence; stable assay firefly, run 1 in luminescence
- Hit rule: 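a well was a first-pass pick when its plate-scaled ratio rose above 1.5 (siRNA assay) or 1.6 (miRNA assay), or dropped below 0.6; a gene counted only if two separate dsRNAs agreed on retest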

{"Gene":"dgt2 (dim gamma-tubulin 2)","dsRNA no.":1,"stable assay Renilla, run 1":11966,"stable assay firefly, run 1":5.59e5,"Outcome":"inactive"}
{"Gene":"yellow-e2","dsRNA no.":1,"stable assay Renilla, run 1":7038,"stable assay firefly, run 1":4.06e5,"Outcome":"inactive"}
{"Gene":"ect (ectodermal)","dsRNA no.":1,"stable assay Renilla, run 1":3883,"stable assay firefly, run 1":4.52e5,"Outcome":"inactive"}
{"Gene":"ect (ectodermal)","dsRNA no.":2,"stable assay Renilla, run 1":6055,"stable assay firefly, run 1":2.63e5,"Outcome":"inactive"}
{"Gene":"ect (ectodermal)","dsRNA no.":3,"stable assay Renilla, run 1":8655,"stable assay firefly, run 1":5.72e5,"Outcome":"inactive"}
{"Gene":"His2Av (Histone H2A variant)","dsRNA no.":1,"stable assay Renilla, run 1":14648,"stable assay firefly, run 1":5.70e5,"Outcome":"inactive"}
{"Gene":"RhoGAP68F (Rho GTPase activating protein at 68F)","dsRNA no.":1,"stable assay Renilla, run 1":10111,"stable assay firefly, run 1":4.86e5,"Outcome":"inactive"}
{"Gene":"Uggt (UDP-glucose-glycoprotein glucosyltransferase)","dsRNA no.":1,"stable assay Renilla, run 1":8207,"stable assay firefly, run 1":2.45e5,"Outcome":"inactive"}
{"Gene":"ppk9 (pickpocket 9)","dsRNA no.":1,"stable assay Renilla, run 1":7203,"stable assay firefly, run 1":4.40e5,"Outcome":"inactive"}
{"Gene":"ppk9 (pickpocket 9)","dsRNA no.":2,"stable assay Renilla, run 1":6451,"stable assay firefly, run 1":3.67e5,"Outcome":"inactive"}
{"Gene":"CG31882","dsRNA no.":1,"stable assay Renilla, run 1":4771,"stable assay firefly, run 1":4.40e5,"Outcome":"inactive"}
{"Gene":"UK114","dsRNA no.":1,"stable assay Renilla, run 1":8243,"stable assay firefly, run 1":4.35e5,"Outcome":"inactive"}
{"Gene":"Ptpa (Phosphotyrosyl phosphatase activator)","dsRNA no.":1,"stable assay Renilla, run 1":49177,"stable assay firefly, run 1":1.71e5,"Outcome":"inactive"}
{"Gene":"Dpck (Dephospho-CoA kinase)","dsRNA no.":1,"stable assay Renilla, run 1":6843,"stable assay firefly, run 1":3.98e5,"Outcome":"inactive"}
{"Gene":"PpD5 (Protein phosphatase D5)","dsRNA no.":1,"stable assay Renilla, run 1":8057,"stable assay firefly, run 1":5.55e5,"Outcome":"inactive"}
{"Gene":"PpD5 (Protein phosphatase D5)","dsRNA no.":2,"stable assay Renilla, run 1":5784,"stable assay firefly, run 1":4.13e5,"Outcome":"inactive"}
{"Gene":"CG14113","dsRNA no.":1,"stable assay Renilla, run 1":6555,"stable assay firefly, run 1":3.95e5,"Outcome":"inactive"}
{"Gene":"Ugt307A1 (UDP-glycosyltransferase family 307 member A1)","dsRNA no.":1,"stable assay Renilla, run 1":9425,"stable assay firefly, run 1":6.59e5,"Outcome":"inactive"}
{"Gene":"RpS6 (Ribosomal protein S6)","dsRNA no.":1,"miRNA reporter change":"reporter ratio lowered past the hit cutoff","stable assay Renilla, run 1":6363,"stable assay firefly, run 1":3.34e5,"Outcome":"active"}
{"Gene":"Sec3 (Secretory 3)","dsRNA no.":1,"stable assay Renilla, run 1":7482,"stable assay firefly, run 1":2.57e5,"Outcome":"inactive"}
{"Gene":"Mlp60A (Muscle LIM protein at 60A)","dsRNA no.":1,"stable assay Renilla, run 1":5294,"stable assay firefly, run 1":4.38e5,"Outcome":"inactive"}
{"Gene":"Mlp60A (Muscle LIM protein at 60A)","dsRNA no.":2,"stable assay Renilla, run 1":10354,"stable assay firefly, run 1":5.10e5,"Outcome":"inactive"}
{"Gene":"Mlp60A (Muscle LIM protein at 60A)","dsRNA no.":3,"stable assay Renilla, run 1":2340,"stable assay firefly, run 1":2.58e5,"Outcome":"inactive"}

Records listed so far called active (1):
{"Gene":"RpS6 (Ribosomal protein S6)","dsRNA no.":1,"miRNA reporter change":"reporter ratio lowered past the hit cutoff","stable assay Renilla, run 1":6363,"stable assay firefly, run 1":3.34e5,"Outcome":"active"}

The listing continues:
{"Gene":"Cox17 (Cytochrome c oxidase copper chaperone COX17)","dsRNA no.":1,"stable assay Renilla, run 1":4555,"stable assay firefly, run 1":4.41e5,"Outcome":"inactive"}
{"Gene":"CG33267","dsRNA no.":1,"stable assay Renilla, run 1":3892,"stable assay firefly, run 1":3.11e5,"Outcome":"inactive"}
{"Gene":"CG10395","dsRNA no.":1,"stable assay Renilla, run 1":10174,"stable assay firefly, run 1":1.55e6,"Outcome":"inactive"}
{"Gene":"Pbp45 (PSEA-binding protein 45kD)","dsRNA no.":1,"stable assay Renilla, run 1":7632,"stable assay firefly, run 1":5.44e5,"Outcome":"inactive"}
{"Gene":"CG7011","dsRNA no.":1,"stable assay Renilla, run 1":5847,"stable assay firefly, run 1":3.76e5,"Outcome":"inactive"}
{"Gene":"retn (retained)","dsRNA no.":1,"stable assay Renilla, run 1":6295,"stable assay firefly, run 1":3.38e5,"Outcome":"inactive"}
{"Gene":"Uch-L5R (Uch-L5-related)","dsRNA no.":1,"stable assay Renilla, run 1":4135,"stable assay firefly, run 1":3.07e5,"Outcome":"inactive"}
{"Gene":"Swim (Secreted Wg-interacting molecule)","dsRNA no.":1,"stable assay Renilla, run 1":8275,"stable assay firefly, run 1":1.03e6,"Outcome":"inactive"}
{"Gene":"CG31760","dsRNA no.":1,"stable assay Renilla, run 1":6231,"stable assay firefly, run 1":3.16e5,"Outcome":"inactive"}
{"Gene":"dpr14 (defective proboscis extension response 14)","dsRNA no.":1,"stable assay Renilla, run 1":6724,"stable assay firefly, run 1":3.54e5,"Outcome":"inactive"}
{"Gene":"CG1792","dsRNA no.":1,"stable assay Renilla, run 1":7135,"stable assay firefly, run 1":4.65e5,"Outcome":"inactive"}
{"Gene":"CG15332","dsRNA no.":1,"stable assay Renilla, run 1":5084,"stable assay firefly, run 1":3.15e5,"Outcome":"inactive"}
